This series concerns formalin-fixed visual cortex (gray and white matter). Description: LFB relaxation enhancement, inversion-recovery spin-echo and multi-echo spin-echo MR at 14T. Also noted: species or system human. Here is the method:
Formalin-fixed samples of visual cortex, approximately 1 cm in thickness, were immersed in a mixture of LFB dissolved in a solvent of 95% ethanol (500 mg LFB in 50 ml ethanol) for durations between 48 hours and 3 months. Following LFB staining, the tissue was rinsed in 70% ethanol, rinsed in distilled water, and then immersed in an aqueous solution of lithium carbonate(Li2CO3) (0.25 g Li2CO3 in 500 mL water) until gray-white matter contrast had increased, ranging between approximately 5 minutes and 24 hours. Next, the tissue was rinsed twice more in 70% ethanol and lastly in distilled water. Additional control samples were prepared with 1) formalin only or 2) 95% ethanol followed by immersion in Li2CO3.
Tissue samples were blotted and then immersed in perfluoropolyether (Fomblin, Ausimont USA, Thorofare, N.J.) in a low-pressure environment. […] The low-pressure environment is used to remove artifact-inducing air bubbles from within the tissue.
Data was acquired using a 10 mm birdcage coil in a vertical bore 14T magnet (Magnex Scientific, Oxford, England), with an 89-mm bore and 100 G/cm gradient coil. An inversion-recovery prepared spin-echo sequence and a multi-echo spin-echo sequence were used to determine T1 and T2, respectively. Parameters were estimated in three regions of interest (ROIs), outer gray matter (GMo), inner gray matter (GMi), and white matter (WM), using a nonlinear least-squares fitting routine using the following equations, a:
SIIR−SE=Mo(1−2αe^−TIIT^1)SISE∝Moe^−TEIT^2
where α represents flip angle deviation from 180° and Mo is the equilibrium magnetization.

The mark [1] stands for this setting: 14T, ex vivo visual cortex, non-linear least squares fit.

For the substance Luxol fast blue [LFB], for the setting “1 cm-thick slab of visual cortex, FIGS. 3A-C”, the “penetration of dye into tissue” value is on record as “penetrated deeply enough to change the relaxation times of the interior white matter”. Under setting [1], the “T1, longitudinal relaxation value of gray matter (GM)” value amounted to 519.5 ms and the “T1, longitudinal relaxation value of white matter (WM)” value is given as 297.7 ms.

For the origin of these results see patent US20100273205A1, “Magnetic resonance imaging contrast agents” (priority 2005, published 2010).
